# Primary screen of a compound library

Source: ChEMBL document CHEMBL3988442, “University of Dundee, Small-Polar-MMV Screening Library” (2021).

A: 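Growth of Mycobacterium tuberculosis over 4 days (cholesterol / DPPC medium with tyloxapol); the read-out is not stated. Compounds at 50 µM. Higher reads as more growth inhibition (inferred: compounds with an IC50 in retests scored well above the rest). Size under these conditions: about 69,000 compounds, about 370 of them at 50% or above in at least one test.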
B: 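Growth of Mycobacterium tuberculosis over 3 days (7H9 medium with glucose and tyloxapol); the read-out is not stated. Concentration: 50 µM. Higher reads as more growth inhibition (inferred: compounds with an IC50 in retests scored well above the rest). About 69,000 compounds were tested under these conditions; 1.1% (about 760) showed 50% or more at least once.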

The filed quantity is “Percent Effect” (%). The controls that fix the scale are not given in the record; negative values are as filed. This is an unselected part of the compounds tested. Two or more numbers in one place are separate tests of the same structure; such repeats can differ widely.

For COCCCC1(C(=O)O)CCCN(C(=O)c2ccc(C(C)C)[nH]c2=O)C1 (stereo not shown) the result was A: 3.19%; B: 9.706%.
For Cc1ncsc1C(=O)N1CCc2[nH]nc(-c3ccc4c(c3)OCO4)c2C1 the result was A: -0.02212% & -3.038%; B: -5.963% & -10.58%.
For Cc1ccsc1CN(C)C(=O)c1ccc(N2CCOCC2)c(F)c1 the result was A: 9.315%; B: 10.85%.
For COCc1cc(NCc2ccccc2-n2cncn2)ncn1 the result was A: -21.26%; B: -7.221%.
For CCOCC1CN(S(=O)(=O)CC)Cc2nn(C)cc21 (stereo not shown) the result was A: -21.63%; B: -10.13%.
For Cc1noc(C(C)Nc2ccc(N3CCOCC3)cc2C)n1 (stereo not shown) the result was A: 6.892%; B: 13.8%.
For Cc1nc(C)n(Cc2cccc(NC(=O)N(C)CCC(C)O)c2)n1 (stereo not shown) the result was A: -2.502%; B: -15.49%.
For COC(=O)C(c1cc(F)ccc1F)N(C)C(=O)c1ccccn1 (stereo not shown) the result was A: 8.766%; B: 16.87%.
For COCc1ccc(OC)c(CNC2CCCNC2=O)c1 (stereo not shown) the result was A: -3.631%; B: 9.639%.
For CCN(CC)CCCN1CCN(c2nc(C)cnc2C)CC1 the result was A: 14.46%; B: -7.845%.
For CC(C)c1cc(NCC2(Cn3cccn3)CC2)nc(N)n1 the result was A: 1.174%; B: -18.17%.
For CCc1nccn1C1CCCN(C(=O)c2ccc3c(c2)OCO3)C1 (stereo not shown) the result was A: -8.121%; B: -4.855%.
For CC(C)c1nc(S(=O)(=O)N(C)c2ccc(F)cc2)c[nH]1 the result was A: 2.627% & 0.818%; B: -18.01% & 4.156%.
For CC(C)Cc1cc(CNC(=O)C2CCCN(Cc3ccco3)C2)no1 (stereo not shown) the result was A: 2.243%; B: 14.06%.
For CCCS(=O)(=O)N1CCC2(CC1)CC(N1CCCC1)c1ccccc12.O=C(O)C(F)(F)F (stereo not shown) the result was A: -2.987%; B: 11.7% & -0.3532%.
For Cc1csc(C2CCCCN2C(=O)c2cc(C(C)C)[nH]n2)n1 (stereo not shown) the result was A: -16.98%; B: -5.751%.
For CCc1ccc(S(=O)(=O)NCCC(O)c2ccoc2)s1 (stereo not shown) the result was A: -4.798%; B: 26.27%.
For CC(C)c1nccn1C1CCCN(C(=O)c2cc(C3CC3)on2)C1 (stereo not shown) the result was A: 2.291%; B: 16.69%.
For Cc1cn2c(n1)CCC(NC(=O)c1cc(C3CC3)[nH]n1)C2 (stereo not shown) the result was A: 0.5511%; B: -10.66%.
For Cc1nnc(NC(=O)NCc2ccc(N3CCN(C)CC3)nc2)s1 the result was A: -24.05%; B: -11.47%.
For [H][C@@]12CCCN1C[C@H](CCSC)N(Cc1cn(CC)nc1C)C2 the result was A: -12.28%; B: -7.212%.
For COCC(=O)N1CCCC2(CCN(c3cncnc3)C2=O)C1 (stereo not shown) the result was A: -10.93% & -28.8%; B: -11.51%.
For COCCCC1CCCCN1Cc1cnn(C)c1C1CC1 (stereo not shown) the result was A: -3.33% & 1.136%; B: -20.52%.
For CCCNC(=O)c1nc2c(o1)CN(c1ncccn1)C2 the result was A: 7.926%; B: -4.725% & -9.648%.
For CSCc1noc(CN2CC(Cc3ccccc3)CC2=O)n1 (stereo not shown) the result was A: 7.249%; B: 29.85%.
For CC(NCc1c(C(C)C)nn(C)c1N1CCOCC1)C(=O)N(C)C (stereo not shown) the result was A: -32.49%; B: -63.08%.
For CNC(=O)C1Cn2ccnc2C2(CCN(C(=O)c3ccoc3C)CC2)O1.O=C(O)C(F)(F)F (stereo not shown) the result was A: -9.238%; B: 5.678% & -2.696%.
For [H][C@]12CC[C@@]3(N=C(CC)N(C)C3=O)[C@@]1([H])CN(C(=O)Nc1ccccc1)C2 the result was A: 3.016%; B: 13.65%.
For CNc1nc(C2CCCN2C(C)=O)nc2c1CN(C1CCCC1)CC2 (stereo not shown) the result was A: -5.5%; B: 4.115%.
For c1ccc2[nH]c(C3CCN(Cc4noc(C5CC5)n4)CC3)cc2c1 the result was A: 1.801%; B: 18.21%.
For Cn1cc(Cl)c(CN2CCn3nc(C(=O)Nc4ccccc4)cc3C2)n1 the result was A: -52.39%; B: -12.3%.
For COc1ncccc1-c1cc(C(N)=O)ccn1 the result was A: -18.81%; B: -16.31% & -1.038%.
For Cc1cnc(CN2CCOC(CN(C)c3cccnn3)C2)cn1 (stereo not shown) the result was A: -23.67%; B: -28.72%.
For O=C(CCc1nc(-c2cccnc2)no1)N(CC1CCOC1)C1CC1 (stereo not shown) the result was A: 6.217%; B: -7.292%.
For CN(C)C1CC2(CCN(C(=O)c3csnn3)CC2)c2ccccc21.O=C(O)C(F)(F)F (stereo not shown) the result was A: -15.26%; B: -0.3614% & 0.1807%.
For CC(Cn1cccn1)NC(=O)Cc1cccs1 (stereo not shown) the result was A: -15.33%; B: -6.855%.
For Cc1ccc(NC2CCN(C(=O)CCc3cscn3)CC2)nn1 the result was A: -13.68%; B: -15.53% & -14.89%.
For O=C(NC[C@H]1OC[C@@H](NC2CCC(F)(F)CC2)[C@@H]1O)N1CCOCC1 the result was A: -16.46%; B: -20.38% & -1.953%.
For O=C(NC1CC1)N1CCn2c(Cn3cccn3)cnc2C1.O=C(O)C(F)(F)F the result was A: -26.04%; B: 10.84%.
For COCCNc1ccccc1CNC(=O)NCc1ccc(C)s1 the result was A: -8.882%; B: 24.61%.
For Cc1n[nH]c(C)c1NC(=O)NCc1cc[nH]n1 the result was A: -16.09%; B: -19.69%.
For O=C(O)C(F)(F)F.O=C(O)C(F)(F)F.[H][C@]12CCN(c3ncccn3)CC[C@@]1([H])S(=O)(=O)CCN2Cc1cccnc1 the result was A: -7.426% & -0.8407%; B: -18.65%.
For CN(Cc1ccc(Br)c2cccnc12)S(C)(=O)=O the result was A: -17.17%; B: -1.491% & -1.528%.
For COc1cccc(-c2cc(NCc3cscn3)n(C)n2)c1 the result was A: 15.32% & 1.593%; B: 5.227%.
For COCCN(Cc1ccc(C)o1)C(=O)Nc1nnc2ccccn12 the result was A: -0.8868%; B: 5.69% & -1.629%.

3 of the entries, repeated:

* Cc1nnc(NC(=O)NCc2ccc(N3CCN(C)CC3)nc2)s1 : A: -24.05%; B: -11.47%
* COCCNc1ccccc1CNC(=O)NCc1ccc(C)s1 : A: -8.882%; B: 24.61%
* COCc1ccc(OC)c(CNC2CCCNC2=O)c1 (stereo not shown) : A: -3.631%; B: 9.639%